Here are results for 1 sequence from paper PMC9307851.

For at least one entry, the source does not settle the construct or the ends of the probe. At least one verdict rests on a figure or table, not on a statement of the authors.

For this data set, the target named is DNMT3B MTase domain WT (human) (UniProt Q9UBC3). Description: EMSA. Particulars: 40 nM DNA, 0-800 nM protein; EMSA: 50 mM Tris-HCl pH 8.0, 25% glycerol, 8% glucose, 2 mM DTT, 0.1 mg/mL BSA, 30 min, gel in 0.5x TBE at 4 C; recombinant …; residues 569-853; protein details: His6-MBP removed by TEV.

With “GACGACGACGACGACGACGACGACGACGACGACGAC (double strand) [(GAC)12 DNA duplex]”, the binding result is “binds”.
